Where a sequence shows no end group, the ends are not given.
Test: peptide synthesis
Conditions: whole synthesis, analytical HPLC

Q: With KWKYPKLLKKLLK as the sequence, how does the “final HPLC purity” value read?
A: The value was “above 99%”.
